Results as given in publication PMC6803327.
Results are given in words; binding and its absence hold for the method and conditions named.

Sequences of proteins named here, by UniProt entry; tags and fusion partners are left off.
UniProt B0B9M4: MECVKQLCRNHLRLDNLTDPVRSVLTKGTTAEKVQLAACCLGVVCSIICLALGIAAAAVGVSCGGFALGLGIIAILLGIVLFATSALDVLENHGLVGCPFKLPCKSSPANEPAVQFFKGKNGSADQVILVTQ
UniProt A0A0H3MD02: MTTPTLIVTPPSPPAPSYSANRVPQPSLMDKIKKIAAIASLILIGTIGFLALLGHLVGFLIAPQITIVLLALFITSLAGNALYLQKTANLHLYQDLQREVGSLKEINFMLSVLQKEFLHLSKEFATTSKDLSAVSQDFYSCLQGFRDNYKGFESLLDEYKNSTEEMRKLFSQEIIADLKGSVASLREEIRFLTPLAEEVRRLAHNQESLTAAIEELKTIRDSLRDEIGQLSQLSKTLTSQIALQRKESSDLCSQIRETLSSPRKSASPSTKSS

Biological target: IncE (BACTH fusion) (C. trachomatis serovar L2) (UniProt B0B9M4)
Experiment: two-hybrid; bacterial adenylate cyclase two-hybrid (BACTH): pST25 and pUT18C fusions cotransformed into E. coli DHT1 (ΔcyaA), minimal medium with IPTG and X-Gal, 30°C 3 to 5 days; β-galactosidase assay in relative units; positive: more than five times the negative control

**Q.** “IncA (BACTH fusion) (from UniProt A0A0H3MD02 1-273)” was tested. Which binding did it give?
**A.** The binding was “no binding”.
